Measured values published in paper PMC12059635.
Like-named read-outs stand apart in the source and are kept apart here. These are yes or no findings as the source states them, for the method shown. In cells and extracts the contact can be indirect. Some results given as binding are weak or reduced against the parent protein; the word gives no strength.

The chains behind the UniProt entries cited, without tags or fusion partners.
UniProt Q8C2B3: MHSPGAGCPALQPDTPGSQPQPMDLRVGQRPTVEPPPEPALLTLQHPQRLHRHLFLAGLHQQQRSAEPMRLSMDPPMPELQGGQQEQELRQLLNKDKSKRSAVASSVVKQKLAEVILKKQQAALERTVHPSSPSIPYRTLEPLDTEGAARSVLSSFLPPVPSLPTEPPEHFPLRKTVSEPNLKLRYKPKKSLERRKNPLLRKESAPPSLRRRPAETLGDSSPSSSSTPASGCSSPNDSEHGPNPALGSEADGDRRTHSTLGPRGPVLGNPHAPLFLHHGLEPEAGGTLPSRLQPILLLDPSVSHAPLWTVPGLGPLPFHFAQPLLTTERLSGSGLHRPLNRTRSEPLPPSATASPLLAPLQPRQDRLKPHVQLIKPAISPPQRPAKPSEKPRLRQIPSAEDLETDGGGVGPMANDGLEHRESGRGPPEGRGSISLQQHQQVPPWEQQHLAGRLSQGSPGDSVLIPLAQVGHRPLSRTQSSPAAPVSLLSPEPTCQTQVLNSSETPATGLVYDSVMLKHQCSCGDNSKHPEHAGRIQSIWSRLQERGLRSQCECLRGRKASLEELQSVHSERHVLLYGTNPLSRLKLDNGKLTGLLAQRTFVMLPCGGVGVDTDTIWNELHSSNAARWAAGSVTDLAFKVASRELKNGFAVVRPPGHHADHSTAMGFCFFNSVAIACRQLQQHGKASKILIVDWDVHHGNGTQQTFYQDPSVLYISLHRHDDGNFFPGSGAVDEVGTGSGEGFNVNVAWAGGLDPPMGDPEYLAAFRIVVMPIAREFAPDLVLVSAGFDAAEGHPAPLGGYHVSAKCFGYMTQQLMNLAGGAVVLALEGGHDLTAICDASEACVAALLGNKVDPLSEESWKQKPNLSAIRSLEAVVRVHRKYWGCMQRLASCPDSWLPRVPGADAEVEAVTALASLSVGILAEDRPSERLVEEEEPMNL
UniProt Q61881: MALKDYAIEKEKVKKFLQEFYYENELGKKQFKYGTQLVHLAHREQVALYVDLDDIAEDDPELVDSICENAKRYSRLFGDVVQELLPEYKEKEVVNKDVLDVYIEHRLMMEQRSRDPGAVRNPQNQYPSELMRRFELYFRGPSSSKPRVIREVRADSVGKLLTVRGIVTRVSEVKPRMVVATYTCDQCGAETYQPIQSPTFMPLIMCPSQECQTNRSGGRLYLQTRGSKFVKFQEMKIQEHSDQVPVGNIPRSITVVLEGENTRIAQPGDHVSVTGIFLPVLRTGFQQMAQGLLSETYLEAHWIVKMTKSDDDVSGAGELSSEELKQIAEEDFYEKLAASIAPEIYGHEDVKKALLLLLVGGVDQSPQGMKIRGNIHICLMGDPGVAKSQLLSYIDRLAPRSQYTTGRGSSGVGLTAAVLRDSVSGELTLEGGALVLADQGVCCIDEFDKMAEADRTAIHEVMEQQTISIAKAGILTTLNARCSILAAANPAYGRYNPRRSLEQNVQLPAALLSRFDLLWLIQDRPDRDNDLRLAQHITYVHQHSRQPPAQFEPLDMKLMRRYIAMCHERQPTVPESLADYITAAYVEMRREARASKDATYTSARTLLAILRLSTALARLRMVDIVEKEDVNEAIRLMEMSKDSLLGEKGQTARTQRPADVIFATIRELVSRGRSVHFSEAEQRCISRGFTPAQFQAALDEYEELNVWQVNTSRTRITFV

Experiments:
[1] = molecular target: Histone deacetylase 7 (HDAC7), wild type (mouse) (UniProt Q8C2B3); assay: co-IP; NMCMs transfected with Hdac7 adenoviruses; Pierce IP Lysis Buffer, 1 mg whole lysate; magnetic beads with mouse FLAG antibody, overnight incubation; immunoblot with HDAC7, MEF2D, MCM3, MCM5 and MCM7 antibodies
[2] = molecular target: Histone deacetylase 7 (HDAC7), wild type (mouse) (UniProt Q8C2B3); assay: as above; remark: listed apart in the source

Row | Molecule | binding [1] | binding [2]
1 | Minichromosome maintenance protein 7 (MCM7) (from UniProt Q61881 1-719) | binds | –
2 | MCM3 (protein, UniProt P25206 1-812) MAGTVVLDDVELREAQRDYLDFLDDEEDQGIYQNKVRELISDNQYRLIVSVNDLRRKNEKRANRLLNNAFEELVAFQRALKDFVASIDATYAKQYEEFYIGLEGSFGSKHVSPRTLTSCFLSCVVCVEGIVTKCSLVRPKVVRSVHYCPATKKTIERRYSDLTTLVAFPSSSVYPTKDEENNPLETEYGLSVYKDHQTITIQEMPEKAPAGQLPRSVDVILDDDLVDKVKPGDRIQVVGTYRCLPGKKGCYTSGTFRTVLIACNVKQMSKDIQPAFSADDIAKIKKFSKTRSKDVFEQLARSLAPSIHGHDYVKKAILCLLLGGVERELENGSHIRGDINILLIGDPSVAKSQLLRYVLCTAPRAIPTTGRGSSGVGLTAAVTTDQETGERRLEAGAMVLADRGVVCIDEFDKMSDMDRTAIHEVMEQGRVTIAKAGIHARLNARCSVLAAANPVYGRYDQYKTPMENIGLQDSLLSRFDLLFIMLDQMDPEQDREISDHVLRMHQYRAPGEQDGDALPLGSSVDILATDDPDFTQDDQQDTRIYEKHDSLLHGTKKKKEKMVSAAFMKKYIHVAKIIKPTLTQESAAYIAEEYSRLRSQDSMSSDTARTSPVTARTLETLIRLATAHAKARMSKTVDLQDAEEAVELVQYAYFKKVLEKEKKRKKASEDESDLEDEEEKSQEDTEQKRKRRKTHAKDGESYDPYDFSEAETQMPQVHTPKTDDSQEKTDDSQETQDSQKVELSEPRLKAFKAALLEVFQEAHEQSVGMLHLTESINRNREEPFSSEEIQACLSRMQDDNQVMVSEGIVFLI | – | binds
3 | MCM5 (protein, UniProt P49718 1-734) MSGFDDPGIFYSDSFGGDPGAEEGQARKSQLQRRFKEFLRQYRVGTDRTGFTFKYRDELKRHYNLGEYWIEVEMEDLASFDEELADHLHKQPAEHLQLLEEAAKEVADEVTRPRPAGDELLQDIQVMLKSDASPSSIRILKSDMMSHLVKIPGIIISASAVRAKATRISIQCRSCHNTLTNIAMRPGLEGYALPRKCNMDQAGRPKCPLDPYFIMPDKCKCVDFQTLKLQELPDAVPHGEMPRHMQLYCDRYLCDKVVPGNRVTIMGIYSIKKFGLNPSKGRDRVGVGIRSSYIRVLGIQVDTDGSGRSFAGSVSPQEEEEFRRLAALPNIYELISKSISPSIFGGMDMKKAIACLLFGGSRKRLPDGLTRRGDINLLMLGDPGTAKSQLLKFVEKCSPIGVYTSGKGSSAAGLTASVIRDPSSRNFIMEGGAMVLADGGVVCIDEFDKMREDDRVAIHEAMEQQTISIAKAGITTTLNSRCSVLAAANSVFGRWDETKGEDNIDFMPTILSRFDMIFIVKDEHNEERDMMLAKHVMTLHVSALTQTQAVEGEIDLAKMKKFIAYCRARCGPRLSAEAAEKLKNRYIIMRSGARQHERDSDRRSSIPITVRQLEAIVRIAEALSKMKLQPFATEADVEEALRLFQVSTLDAALSGNLSGVEGFTTQEDQEMLSRIEKQLKRRFAIGSQVSEHSIVQDFTKQKYPEHAIRKVLQLMLRRGEIQHRMQRKVLYRLK | – | binds
